{"source": "the supplement of paper PMC8728848", "binders": {"B1": {"name": "Clec12b (Mus musculus), Q149M0 (protein)", "chain": "MSDEVTYATLMLQDSARVRGNQDGNNLRKEGHPAQSSLWRGAALSLMTLCLVLVTGLVTLATMFLQVSNDINSDSEKLSQLQKSIHPQQDNLSESLNSSRKSLTEESLQSQISALLERQEQMATKLCKEFLIHASDHKCNPCPKTWQWYGNSCYYFSINEEKSWSDSRKDCIDKNATLVKIDSTEERDLLQSQLSLTFSFFWLGLSWNSSGRNWLWEDGSFPPPTLFSDKELASFNGSRDCAYFERGNIYASRCSAEIPWICEKTASLVKTEDLD"}}, "test_in_all_cases": "glycan array binding signal (z-score within array); higher = stronger binding", "settings_in_all_cases": "glycan notation: IUPAC condensed, linker removed", "key": {"[1]": {"molecular_target": "Fuc(a1-3)[Gal3S(b1-4)]GlcNAc", "summary_of_the_method": "(§1)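 The binding signal is a Z-score computed within each array and averaged over linkers. Arrays of the same protein sequence at different concentrations or buffers were also averaged together. Data originate from 3228 arrays in the Consortium for Functional Glycomics database, kept only where the protein sequence was available.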"}, "[2]": {"molecular_target": "Fuc(a1-3)[Gal3S(b1-4)]GlcNAc6S", "summary_of_the_method": "as §1"}, "[3]": {"molecular_target": "Fuc(a1-3)[GalNAc(b1-4)]GlcNAc", "summary_of_the_method": "as §1"}, "[4]": {"molecular_target": "Fuc(a1-3)[GalNAc(b1-4)]GlcNAc6S", "summary_of_the_method": "as §1"}, "Fuc(a1-4)GlcNAc": {"molecular_target": "Fuc(a1-4)GlcNAc", "summary_of_the_method": "as §1"}, "Fuc(b1-3)GlcNAc": {"molecular_target": "Fuc(b1-3)GlcNAc", "summary_of_the_method": "as §1"}, "Gal(a1-2)Gal": {"molecular_target": "Gal(a1-2)Gal", "summary_of_the_method": "as §1"}, "Gal(a1-3)Gal": {"molecular_target": "Gal(a1-3)Gal", "summary_of_the_method": "as §1"}, "Gal(a1-3)Gal(b1-3)GlcNAc": {"molecular_target": "Gal(a1-3)Gal(b1-3)GlcNAc", "summary_of_the_method": "as §1"}, "[5]": {"molecular_target": "Gal(a1-3)Gal(b1-3)GlcNAc(b1-2)Man", "summary_of_the_method": "as §1"}, "[6]": {"molecular_target": "Gal(a1-3)Gal(b1-3)GlcNAc(b1-2)Man(a1-3)[Gal(a1-3)Gal(b1-3)GlcNAc(b1-2)Man(a1-6)]Man(b1-4)GlcNAc(b1-4)GlcNAc", "summary_of_the_method": "as §1"}, "[7]": {"molecular_target": "Gal(a1-3)Gal(b1-3)GlcNAc(b1-3)GalNAc", "summary_of_the_method": "as §1"}, "[8]": {"molecular_target": "Gal(a1-3)Gal(b1-3)GlcNAc(b1-6)GalNAc", "summary_of_the_method": "as §1"}, "[9]": {"molecular_target": "Gal(a1-3)Gal(b1-3)[Fuc(a1-4)]GlcNAc(b1-2)Man(a1-3)[Gal(a1-3)Gal(b1-3)[Fuc(a1-4)]GlcNAc(b1-2)Man(a1-6)]Man(b1-4)GlcNAc(b1-4)GlcNAc", "summary_of_the_method": "as §1"}, "Gal(a1-3)Gal(b1-4)Glc": {"molecular_target": "Gal(a1-3)Gal(b1-4)Glc", "summary_of_the_method": "as §1"}, "Gal(a1-3)Gal(b1-4)GlcNAc": {"molecular_target": "Gal(a1-3)Gal(b1-4)GlcNAc", "summary_of_the_method": "as §1"}, "[10]": {"molecular_target": "Gal(a1-3)Gal(b1-4)GlcNAc(b1-2)Man", "summary_of_the_method": "as §1"}, "[11]": {"molecular_target": "Gal(a1-3)Gal(b1-4)GlcNAc(b1-2)Man(a1-3)[Gal(a1-3)Gal(b1-4)GlcNAc(b1-2)Man(a1-6)]Man(b1-4)GlcNAc(b1-4)GlcNAc", "summary_of_the_method": "as §1"}, "[12]": {"molecular_target": "Gal(a1-3)Gal(b1-4)GlcNAc(b1-3)GalNAc", "summary_of_the_method": "as §1"}, "[13]": {"molecular_target": "Gal(a1-3)Gal(b1-4)GlcNAc(b1-6)GalNAc", "summary_of_the_method": "as §1"}, "[14]": {"molecular_target": "Gal(a1-3)Gal(b1-4)[Fuc(a1-3)]GlcNAc", "summary_of_the_method": "as §1"}, "[15]": {"molecular_target": "Gal(a1-3)Gal(b1-4)[Fuc(a1-3)]GlcNAc(b1-2)Man(a1-3)[Gal(a1-3)Gal(b1-4)[Fuc(a1-3)]GlcNAc(b1-2)Man(a1-6)]Man(b1-4)GlcNAc(b1-4)GlcNAc", "summary_of_the_method": "as §1"}, "Gal(a1-3)GalNAc": {"molecular_target": "Gal(a1-3)GalNAc", "summary_of_the_method": "as §1"}, "[16]": {"molecular_target": "Gal(a1-3)[Gal(a1-4)]Gal(b1-4)GlcNAc", "summary_of_the_method": "as §1"}, "[17]": {"molecular_target": "Gal(a1-4)Gal(b1-3)GlcNAc(b1-2)Man(a1-3)[Gal(a1-4)Gal(b1-3)GlcNAc(b1-2)Man(a1-6)]Man(b1-4)GlcNAc(b1-4)GlcNAc", "summary_of_the_method": "as §1"}, "Gal(a1-4)Gal(b1-4)Glc": {"molecular_target": "Gal(a1-4)Gal(b1-4)Glc", "summary_of_the_method": "as §1"}, "Gal(a1-4)Gal(b1-4)GlcNAc": {"molecular_target": "Gal(a1-4)Gal(b1-4)GlcNAc", "summary_of_the_method": "as §1"}, "[18]": {"molecular_target": "Gal(a1-4)Gal(b1-4)GlcNAc(b1-2)Man(a1-3)[Gal(a1-4)Gal(b1-4)GlcNAc(b1-2)Man(a1-6)]Man(b1-4)GlcNAc(b1-4)GlcNAc", "summary_of_the_method": "as §1"}, "[19]": {"molecular_target": "Gal(a1-4)Gal(b1-4)GlcNAc(b1-3)Gal(b1-4)Glc", "summary_of_the_method": "as §1"}, "Gal(a1-4)GlcNAc": {"molecular_target": "Gal(a1-4)GlcNAc", "summary_of_the_method": "as §1"}, "Gal(a1-6)Glc": {"molecular_target": "Gal(a1-6)Glc", "summary_of_the_method": "as §1"}, "Gal(b1-2)Gal": {"molecular_target": "Gal(b1-2)Gal", "summary_of_the_method": "as §1"}, "Gal(b1-3)Gal": {"molecular_target": "Gal(b1-3)Gal", "summary_of_the_method": "as §1"}, "Gal(b1-3)Gal(b1-4)GlcNAc": {"molecular_target": "Gal(b1-3)Gal(b1-4)GlcNAc", "summary_of_the_method": "as §1"}, "Gal(b1-3)GalNAc": {"molecular_target": "Gal(b1-3)GalNAc", "summary_of_the_method": "as §1"}, "[20]": {"molecular_target": "Gal(b1-3)GalNAc(a1-3)[Fuc(a1-2)]Gal(b1-4)Glc", "summary_of_the_method": "as §1"}, "[21]": {"molecular_target": "Gal(b1-3)GalNAc(a1-3)[Fuc(a1-2)]Gal(b1-4)GlcNAc", "summary_of_the_method": "as §1"}}, "note": "Some of the results follow."}
{"binder": "B1", "values": [{"measurement": "glycan array binding signal (z-score)", "setting": "[1]", "result": -0.633}, {"measurement": "glycan array binding signal (z-score)", "setting": "[2]", "result": -0.365}, {"measurement": "glycan array binding signal (z-score)", "setting": "[3]", "result": -0.607}, {"measurement": "glycan array binding signal (z-score)", "setting": "[4]", "result": -0.487}, {"measurement": "glycan array binding signal (z-score)", "setting": "Fuc(a1-4)GlcNAc", "result": -0.43}, {"measurement": "glycan array binding signal (z-score)", "setting": "Fuc(b1-3)GlcNAc", "result": -0.258}, {"measurement": "glycan array binding signal (z-score)", "setting": "Gal(a1-2)Gal", "result": 0.302}, {"measurement": "glycan array binding signal (z-score)", "setting": "Gal(a1-3)Gal", "result": 0.181}, {"measurement": "glycan array binding signal (z-score)", "setting": "Gal(a1-3)Gal(b1-3)GlcNAc", "result": 5.35}, {"measurement": "glycan array binding signal (z-score)", "setting": "[5]", "result": -0.666}, {"measurement": "glycan array binding signal (z-score)", "setting": "[6]", "result": 2.5}, {"measurement": "glycan array binding signal (z-score)", "setting": "[7]", "result": -0.032}, {"measurement": "glycan array binding signal (z-score)", "setting": "[8]", "result": -0.324}, {"measurement": "glycan array binding signal (z-score)", "setting": "[9]", "result": 0.289}, {"measurement": "glycan array binding signal (z-score)", "setting": "Gal(a1-3)Gal(b1-4)Glc", "result": -0.491}, {"measurement": "glycan array binding signal (z-score)", "setting": "Gal(a1-3)Gal(b1-4)GlcNAc", "result": 0.53}, {"measurement": "glycan array binding signal (z-score)", "setting": "[10]", "result": 0.744}, {"measurement": "glycan array binding signal (z-score)", "setting": "[11]", "result": 0.311}, {"measurement": "glycan array binding signal (z-score)", "setting": "[12]", "result": -0.657}, {"measurement": "glycan array binding signal (z-score)", "setting": "[13]", "result": -0.003}, {"measurement": "glycan array binding signal (z-score)", "setting": "[14]", "result": 0.899}, {"measurement": "glycan array binding signal (z-score)", "setting": "[15]", "result": 0.852}, {"measurement": "glycan array binding signal (z-score)", "setting": "Gal(a1-3)GalNAc", "result": 0.456}, {"measurement": "glycan array binding signal (z-score)", "setting": "[16]", "result": -0.196}, {"measurement": "glycan array binding signal (z-score)", "setting": "[17]", "result": 0.728}, {"measurement": "glycan array binding signal (z-score)", "setting": "Gal(a1-4)Gal(b1-4)Glc", "result": 0.522}, {"measurement": "glycan array binding signal (z-score)", "setting": "Gal(a1-4)Gal(b1-4)GlcNAc", "result": -0.217}, {"measurement": "glycan array binding signal (z-score)", "setting": "[18]", "result": 0.57}, {"measurement": "glycan array binding signal (z-score)", "setting": "[19]", "result": -0.748}, {"measurement": "glycan array binding signal (z-score)", "setting": "Gal(a1-4)GlcNAc", "result": -0.506}, {"measurement": "glycan array binding signal (z-score)", "setting": "Gal(a1-6)Glc", "result": 0.18}, {"measurement": "glycan array binding signal (z-score)", "setting": "Gal(b1-2)Gal", "result": 2.74}, {"measurement": "glycan array binding signal (z-score)", "setting": "Gal(b1-3)Gal", "result": -0.168}, {"measurement": "glycan array binding signal (z-score)", "setting": "Gal(b1-3)Gal(b1-4)GlcNAc", "result": -0.695}, {"measurement": "glycan array binding signal (z-score)", "setting": "Gal(b1-3)GalNAc", "result": -0.339}, {"measurement": "glycan array binding signal (z-score)", "setting": "[20]", "result": -0.349}, {"measurement": "glycan array binding signal (z-score)", "setting": "[21]", "result": -0.587}]}
